From PubChem BioAssay (EPA / NIEHS)
This list holds what a sample rich in hits left over. The source made the active and inactive calls. How the source made its calls: active means hit-call score of the fitted dose curve at least 0.9, where 1 is the maximum; inactive means score below 0.9.

Assays:
Conditions in all cases: actives raise or lower the signal; mRNA level, 48 h
[1] = read-out: Tumor necrosis factor receptor superfamily member 6 (Homo sapiens) (UniProt P25445); test: LTEA_HepaRG_FAS: Life Technologies and Expression Analysis (LTEA) Assay for Fas cell surface death receptor (FAS) using HepaRG (AID 2283447)
Experimental: LTEA_HepaRG is a cell based, multiplexed-readout assay that uses HepaRG, a human liver cell line, with measurements taken at 48 hours after chemical dosing on a 96-well plate.LTEA_HepaRG_FAS is one of 102 assay component(s) measured in the LTEA HepaRG cell culture assay. It is a marker of Cell proliferation, survival, death.Data from the assay component LTEA_HepaRG_FAS was analyzed into 1 endpoint. This assay endpoint, LTEA_HepaRG_FAS, was analyzed with bidirectional fitting relative to DMSO as the negative control and baseline of activity. Using a type of inducible reporter, measures of mRNA induction for gain or loss-of-signal activity can be used to understand regulation of transcription factor activity. To generalize the intended target to other relatable targets, this assay endpoint is annotated to the cytokine receptor intended target family, where the subfamily is TNF receptor.
A total of 1060 chemcials from the ToxCast library were tested in eight-point concentration-response experiments. Cell culture and cytotoxicity assays were conducted at Thermo Fisher Scientific's Custom Services facility (Madison, WI). […] Fluidigm's 96.96 Dynamic ArrayTM (Fluidigm, Amsterdam, the Netherlands) technology was used for gene expression analyses by quantitative reverse transcription polymerase chain reaction (qRT-PCR, performed by Quintiles/Expression Analysis, Durham, NC)89. […]

[2] = read-out: Pro-epidermal growth factor (Homo sapiens) (UniProt P01133); test: LTEA_HepaRG_EGF: Life Technologies and Expression Analysis (LTEA) Assay for Epidermal growth factor (EGF) using HepaRG (AID 2283489)
In short: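 Differentiated human HepaRG cells, plated 48 h then switched to serum-free induction medium, were exposed for 48 h to test chemicals (8-point half-log series, top 100 uM, 0.5% DMSO). EGF mRNA was quantified by qRT-PCR, normalized to ACTB, GAPDH, POLR2A.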

[3] = read-out: Cytochrome P450 7A1 (Homo sapiens) (UniProt P22680); test: LTEA_HepaRG_CYP7A1: Life Technologies and Expression Analysis (LTEA) Assay for Cytochrome P450 7A1 (CYP7A1) using HepaRG (AID 2283496)
In short: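 Gene expression endpoint in human HepaRG liver cells treated for 48 h with test chemicals (up to 100 uM, 0.5% DMSO). Values come from bidirectional concentration-response fitting versus DMSO.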

Measured: outcome

CCCCCCCCc1ccc(O)cc1
inactive: [1] | [2] | [3]
